Out of some 52,000 sequences screened, about 210 (0.4%) were called active.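 How the source made its calls: active means gene whose silencing raises cell survival under the drug, median off-target-corrected z-score across its silencing RNAs 2 or more; inactive means the rest.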 The list shows a part of the results.
Experiment: Resistance to Poly (ADP-Ribose) Polymerase inhibitor: Gene Identification via Genome-wide siRNA Screen
Conditions: mouse BRCA2 R2336H ES cells, olaparib, CellTiter-Glo viability; stronger effect = higher value
Summary of the method: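 Mouse BRCA2 R2336H ES cells were reverse-transfected with siRNA (20 nM final), treated at 48 h with 500 nM olaparib, and read by CellTiter-Glo after 72 h. Scores: MAD-based z per siRNA, median per gene, seed off-target correction.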

Sequence	z-score
GGUGCUUUCCAGCUAUCCCTT against BC031140	inactive: 0.522
GGGACUUGCAUUUUAUAUUTT against 4930529M08Rik	inactive: 0.956
CCAGCAGUAAACUGGAAAUTT against Arhgap25	inactive: -0.782
GCGGGAAAUCACGAAGAUATT against Wdr31	inactive: -0.149
CGAGUGAGUCACGUAUCAUTT against 4930544M13Rik	inactive: -0.812
GCCUAGUGACCCUUUACUATT against Stx1a	inactive: -0.349
CCCUAGGAAAGGGUUUUAGTT against 0610039G24Rik	inactive: 1.2
GGAAUUCAAUGACGUGUACTT against Mapk14	inactive: 1.24
GCUUGUGCAAAGAACAUGUTT against Itgad	inactive: 0.236
GAGGGACUGUAAUGUUGACTT against Olfr560	inactive: 0.0865
GGCUCCUGAAAGAACUGGATT against Arpm2	inactive: -1.32
GGUCUACUGACUCAAAGUCTT against Mrps33	inactive: 0.355
CCACGUUAUCAGCUAUUACTT against Exoc7	inactive: -1.44
GGCUUCAACCGGAGAUUUATT against Pde8b	inactive: 0.987
CCUACUCAGUGUCUUUCAATT against 9530027K23Rik	inactive: 0.14
CCCUGAUGUUCUGUUUGAATT against Ube1dc1	inactive: 0.236
GGUCCAAAAAAGGUUCAAATT against Btbd3	inactive: 0.36
GGAUGGCAUGUCCUUCCAATT against Elf3	inactive: 0.94
GGGCUGAAGAUAAUGCAGATT against Pcna	inactive: -2.81
GCAAGGUGACUCGAAGAAATT against Spry1	inactive: -1.02
GGGACAACUUUGCACAGGATT against Gfap	inactive: 0.358
GGAGACCAUCAAGAAGAGCTT against BC013481	inactive: 0.0983

Sequence	z-score
GGAAACACCAGAGAAGUCCTT against Etf1	inactive: -1.28
GCUGACCACUUCAAGGUUGTT against Lgals3	inactive: -0.845
GAACGGGUUACCAUGUGGUTT against Gm1620	inactive: -0.132
GGAAGAAAACAUUUAGCCCTT against Mmd2	inactive: -0.391
GGAAGUGAUGAUAAGUCUATT against D6Wsu163e	inactive: 0.567
CCCGUAUGAGAAGUUCUAATT against Pttg1ip	inactive: -0.798
GGCAUUGUCCUGUGAUCUCTT against Il10ra	inactive: -0.289
CCUCAUUGAGGUAAUGCGGTT against 1110030L07Rik	inactive: 0.202
GGAAAAAAAAAUCAGAAGGTT against Trp53bp2	inactive: 0.555
GGGCUGCAUUAUUUGAAUUTT against 1110063G11Rik	inactive: 1.01
GGGAGAAGAAAAUGACUUUTT against Edaradd	inactive: -1.63
GGAAAUCGAAUGAAUAACCTT against Klf12	inactive: 0.403
GGUCAUCAAAUACAAAAUGTT against Prlpk	inactive: -0.0665
CCUGUUAGAACAUAAGGGCTT against Thy1	inactive: 0.28
GGGCUAUUGCAUCUUUUAATT against Olfr711	inactive: 0.661
GGAAGACAUAGAAGAAAAGTT against Zdhhc12	inactive: -1.45
GGUUUAUUGACAAGAAGGATT against D14Ertd436e	inactive: 0.344
GCUGGAAGUGAACAUCGAUTT against Gng8	inactive: -1.63
GGUAGAAAACUAGCUAAUATT against Slc35e3	inactive: 0.906
GCACUACAGACACUUUUAGTT against LOC433384	inactive: 1.64
GCGUGGCUGUCAUGUAUUUTT against Olfr244	inactive: -1.73
GGUAAGUCACCAUUAUACCTT against Pcdhb12	inactive: -1.3

Sequence	z-score
GCCUUUCUUCUGUCAAUGATT against Olfr281	inactive: 0.658
GGUCAUCAGUCCUGACACUTT against Dia1	inactive: 0.0234
GCUCCUAGACAACAUCGUGTT against Ppp1r3b	inactive: -0.213
GGACUGAGGUAUCAUUUACTT against Gtf2f2	inactive: -1.35
CCGGUUUCAAAUUGCCACUTT against Psmb4	inactive: -2.29
CCUUUCAUACUUACAUCCUTT against Gpr100	inactive: 1.44
GGAGAAGGGCCUGAAGUAUTT against Lsm5	inactive: -0.418
GGAGAAAUGAAGGUAUACATT against Col4a3bp	inactive: -1.75
GUAUUGGAAGCUCAUUUGATT against Pigf	inactive: 0.402
GGUGUUCUUGAGCUGUGAGTT against Igfbp7	inactive: -1.03
GCAGAAGUUCUACAAUUACTT against 4930486G11Rik	inactive: 0.405
GGAGAAUCUGAAGGACACCTT against Cd151	inactive: 0.793
CCUAGAGCCGUGUGCAUACTT against Plp2	inactive: 2.14
GCUGGACCUUCAUGUAAUATT against Pcsk1	inactive: 0.925
GGAAGAGGCAGAAGUCAUCTT against Bcl2l12	inactive: 0.572
GGAUUUAGGGACAACACAATT against 8430427H17Rik	inactive: 2.27
GAUGACUUUAUCCUCUUGGTT against Olfr1396	inactive: -0.588
GGUGGUUGGAGUACUCAAGTT against Capza1	inactive: -0.456
GCAAUUAGUAACUGAGAAUTT against Dpp10	inactive: -0.414
GGAUCAACGAGGUAAAGUCTT against Itga8	inactive: -1.2
GGCUGUCUUUGUUCCAGUATT against Tnfrsf10b	inactive: -0.0684
GCGCAAAGAUGGCUAUUGCTT against 6330442E02Rik	inactive: -0.388

Reprinted at random: 3 records from the list.
Sequence	z-score
GCAGAAGUUCUACAAUUACTT against 4930486G11Rik	inactive: 0.405
GCAAUUAGUAACUGAGAAUTT against Dpp10	inactive: -0.414
GCCUUUCUUCUGUCAAUGATT against Olfr281	inactive: 0.658
